Experimental data: publication PMC5899157
Results are given in words; binding and its absence hold for the method and conditions named. Some entries that bind do so weakly or less than the wild type.

Amino acid sequences for entries named in this document (tags omitted). Residues count along the entry.
UniProt P25025: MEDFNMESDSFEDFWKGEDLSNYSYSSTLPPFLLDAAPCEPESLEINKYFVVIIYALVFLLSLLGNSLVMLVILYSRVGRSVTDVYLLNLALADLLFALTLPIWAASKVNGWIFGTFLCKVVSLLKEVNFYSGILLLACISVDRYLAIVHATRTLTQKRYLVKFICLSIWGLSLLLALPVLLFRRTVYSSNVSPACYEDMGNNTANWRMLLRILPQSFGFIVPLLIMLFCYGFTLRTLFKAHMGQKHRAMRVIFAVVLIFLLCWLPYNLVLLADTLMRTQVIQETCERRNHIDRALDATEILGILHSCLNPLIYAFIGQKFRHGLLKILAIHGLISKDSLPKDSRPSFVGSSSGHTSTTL
UniProt P09341, residues 35-107: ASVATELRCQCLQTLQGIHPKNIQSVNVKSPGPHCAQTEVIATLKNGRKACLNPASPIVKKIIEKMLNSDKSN

Columns and labels:
[1] = biological target: human CXCR2 on HEK293 cells (human) (UniProt P25025); experiment: flow cytometry on cells; HEK293 cells stably expressing human CXCR1 or CXCR2, biotinylated chemokine 0.03 to 300 nM, 30 min at 4 °C, CBA buffer (PBS pH 7.4, 1% BSA, 0.1% NaN3), Alexa Fluor 647 streptavidin; only the binder purified
[2] = biological target: human CXCR2 on HEK293 cells (human) (UniProt P25025); experiment: flow cytometry on cells; competition: biotinylated chemokine at its EC50 with varying antagonist on HEK293 cells expressing CXCR1 or CXCR2; the chemokine and the receptor that are blocked; only the binder purified

binding [1]: binds
binding [2]: binds
Substance: biotinylated hCXCL1 (^NCXCL-G2-AviTag^C) (from UniProt P09341 35-107) (ligand)
